# Source: patent US20200309767A1, “HIGH-THROUGHPUT IMAGING-BASED METHODS FOR PREDICTING CELL-TYPE-SPECIFIC TOXICITY OF XENOBIOTICS WITH DIVERSE CHEMICAL STRUCTURES” (priority 2015, published 2020)
# Experiments:
# HK-2 cell line = assay type: cell-based, human
# primary human PTCs [1] = assay type: cell-based
# primary human PTCs [2] = assay type: cell-based; remark: listed apart in the source
substance,measurement,setting,value
Gentamicin,"Average nephrotoxicity test accuracy, HK-2 (Multi)",HK-2 cell line,100%
same,"Average nephrotoxicity test accuracy, HK-2 (Single)",HK-2 cell line,90%
same,"Average nephrotoxicity test accuracy, HPTC-A (Single)",primary human PTCs [1],90%
same,"Average nephrotoxicity test accuracy, HPTC-B (Multi)",primary human PTCs [2],100%
same,"Average nephrotoxicity test accuracy, HPTC-B (Single)",primary human PTCs [2],0%
